Results on one molecule are retold here after US20220275038A1 (TOKYO MEDICAL UNIVERSITY, published 2022).

Sequences of proteins named here, by UniProt entry; tags and fusion partners are left off. A change or cut given only in a name is not applied to a line headed by its entry.
UniProt Q15848: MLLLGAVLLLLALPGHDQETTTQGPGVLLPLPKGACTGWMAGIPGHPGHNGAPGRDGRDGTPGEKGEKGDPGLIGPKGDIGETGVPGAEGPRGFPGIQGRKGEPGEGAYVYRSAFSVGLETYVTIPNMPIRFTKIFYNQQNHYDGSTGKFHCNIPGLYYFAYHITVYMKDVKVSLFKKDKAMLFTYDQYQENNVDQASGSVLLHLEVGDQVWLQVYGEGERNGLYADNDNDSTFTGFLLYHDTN

These are yes or no findings as the source states them, for the method shown. In cells and extracts the contact can be indirect. Some results given as binding are weak or reduced against the parent protein; the word gives no strength. Where a sequence is shown, tags or fusion partners need not be part of it.

Test [1] has as its target adiponectin C-terminally tagged with FLAG (overexpressed in F11 cells, immunoprecipitated with FLAG antibody) (human) (UniProt Q15848). In words: pull-down with immunoprecipitated adiponectin, myc immunoblot (FIG. 9).
For test [2] the target is unchanged. Nature of the test: pull-down of purified MycHis-tagged CLSP proteins with ADN-FLAG immunoprecipitated on M2 agarose beads, WB anti-myc [ADN beads].

B1: CLSP deletion mutant EHR, C-terminally tagged with MycHis (consists of only the endogenous humanin-homogenous region) (peptide)
chain: TGKNLSEAQLRKLISEVDSDGD
notes: also called mutants consisting of only EHR; not shown: C-terminal MycHis tag
Regarding B1, the binding entry in test [1] and in test [2] was “binds” each time.
